Source: the supplement of paper PMC10849652
The other results are listed elsewhere or left out.

Amino acid sequences for entries named in this document (tags omitted). A change or cut given only in a name is not applied to a line headed by its entry.
UniProt Q9HB90, whole entry, looked up: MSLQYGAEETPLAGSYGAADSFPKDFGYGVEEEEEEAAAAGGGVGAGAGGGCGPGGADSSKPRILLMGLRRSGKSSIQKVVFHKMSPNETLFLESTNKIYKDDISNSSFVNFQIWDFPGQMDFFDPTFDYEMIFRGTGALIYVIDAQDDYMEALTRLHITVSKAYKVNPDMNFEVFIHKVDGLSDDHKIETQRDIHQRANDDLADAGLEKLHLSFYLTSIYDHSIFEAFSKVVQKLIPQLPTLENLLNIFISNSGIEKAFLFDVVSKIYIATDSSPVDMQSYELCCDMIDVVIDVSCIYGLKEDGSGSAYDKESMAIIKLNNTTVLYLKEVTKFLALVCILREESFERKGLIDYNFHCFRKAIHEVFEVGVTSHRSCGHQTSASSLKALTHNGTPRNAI
UniProt Q9Y224: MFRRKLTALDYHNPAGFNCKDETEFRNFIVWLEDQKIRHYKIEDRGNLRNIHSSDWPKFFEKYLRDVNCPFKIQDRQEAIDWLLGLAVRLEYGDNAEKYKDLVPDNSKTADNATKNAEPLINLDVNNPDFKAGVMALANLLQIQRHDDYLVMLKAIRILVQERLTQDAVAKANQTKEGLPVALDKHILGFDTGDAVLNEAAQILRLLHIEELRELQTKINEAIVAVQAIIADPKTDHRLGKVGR
UniProt Q7L099: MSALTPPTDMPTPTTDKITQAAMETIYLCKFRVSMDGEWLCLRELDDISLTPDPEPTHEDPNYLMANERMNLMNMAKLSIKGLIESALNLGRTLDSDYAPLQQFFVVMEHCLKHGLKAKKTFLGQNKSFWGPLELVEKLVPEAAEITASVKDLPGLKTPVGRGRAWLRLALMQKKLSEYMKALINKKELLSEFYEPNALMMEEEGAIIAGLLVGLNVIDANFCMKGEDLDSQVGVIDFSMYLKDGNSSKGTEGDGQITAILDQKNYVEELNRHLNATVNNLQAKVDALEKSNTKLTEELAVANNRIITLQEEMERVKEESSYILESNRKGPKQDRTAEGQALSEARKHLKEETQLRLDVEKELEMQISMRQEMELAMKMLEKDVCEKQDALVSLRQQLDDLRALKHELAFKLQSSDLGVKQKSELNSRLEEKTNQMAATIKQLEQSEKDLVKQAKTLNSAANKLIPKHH
UniProt P51812, whole entry, looked up: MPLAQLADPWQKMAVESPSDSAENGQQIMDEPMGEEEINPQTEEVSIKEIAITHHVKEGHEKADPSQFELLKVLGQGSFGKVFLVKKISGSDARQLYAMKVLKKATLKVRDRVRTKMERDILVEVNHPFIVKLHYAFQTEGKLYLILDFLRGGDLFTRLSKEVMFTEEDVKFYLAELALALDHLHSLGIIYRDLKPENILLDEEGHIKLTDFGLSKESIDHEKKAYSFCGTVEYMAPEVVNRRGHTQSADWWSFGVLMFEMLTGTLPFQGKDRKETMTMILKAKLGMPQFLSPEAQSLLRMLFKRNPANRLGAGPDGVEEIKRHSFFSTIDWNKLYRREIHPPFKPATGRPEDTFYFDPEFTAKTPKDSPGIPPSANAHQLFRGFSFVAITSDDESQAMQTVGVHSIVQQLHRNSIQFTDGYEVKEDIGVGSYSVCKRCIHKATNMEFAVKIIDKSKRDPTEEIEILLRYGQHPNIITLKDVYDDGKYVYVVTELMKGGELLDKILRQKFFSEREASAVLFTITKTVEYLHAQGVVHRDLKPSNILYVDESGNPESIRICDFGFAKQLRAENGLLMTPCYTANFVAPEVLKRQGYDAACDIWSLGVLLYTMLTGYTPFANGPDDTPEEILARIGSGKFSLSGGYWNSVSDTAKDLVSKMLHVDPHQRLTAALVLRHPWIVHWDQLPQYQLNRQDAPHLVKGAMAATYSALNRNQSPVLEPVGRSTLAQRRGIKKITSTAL
UniProt Q7LG56, whole entry, looked up: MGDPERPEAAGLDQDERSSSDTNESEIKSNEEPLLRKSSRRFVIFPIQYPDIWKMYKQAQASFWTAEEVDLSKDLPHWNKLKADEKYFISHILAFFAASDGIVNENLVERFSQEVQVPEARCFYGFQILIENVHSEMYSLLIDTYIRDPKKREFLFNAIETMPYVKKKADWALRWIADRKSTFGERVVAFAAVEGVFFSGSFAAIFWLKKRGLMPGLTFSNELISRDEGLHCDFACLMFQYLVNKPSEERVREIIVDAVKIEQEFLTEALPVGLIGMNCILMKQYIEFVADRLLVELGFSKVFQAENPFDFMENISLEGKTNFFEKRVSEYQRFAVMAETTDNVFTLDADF
UniProt P10301: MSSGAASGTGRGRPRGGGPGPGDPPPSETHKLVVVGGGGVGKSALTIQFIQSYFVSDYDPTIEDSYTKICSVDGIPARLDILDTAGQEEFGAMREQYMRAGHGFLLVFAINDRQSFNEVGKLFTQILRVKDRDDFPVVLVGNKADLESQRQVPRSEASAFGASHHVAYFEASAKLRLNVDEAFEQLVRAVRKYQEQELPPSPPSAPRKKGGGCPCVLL
UniProt Q5VT52: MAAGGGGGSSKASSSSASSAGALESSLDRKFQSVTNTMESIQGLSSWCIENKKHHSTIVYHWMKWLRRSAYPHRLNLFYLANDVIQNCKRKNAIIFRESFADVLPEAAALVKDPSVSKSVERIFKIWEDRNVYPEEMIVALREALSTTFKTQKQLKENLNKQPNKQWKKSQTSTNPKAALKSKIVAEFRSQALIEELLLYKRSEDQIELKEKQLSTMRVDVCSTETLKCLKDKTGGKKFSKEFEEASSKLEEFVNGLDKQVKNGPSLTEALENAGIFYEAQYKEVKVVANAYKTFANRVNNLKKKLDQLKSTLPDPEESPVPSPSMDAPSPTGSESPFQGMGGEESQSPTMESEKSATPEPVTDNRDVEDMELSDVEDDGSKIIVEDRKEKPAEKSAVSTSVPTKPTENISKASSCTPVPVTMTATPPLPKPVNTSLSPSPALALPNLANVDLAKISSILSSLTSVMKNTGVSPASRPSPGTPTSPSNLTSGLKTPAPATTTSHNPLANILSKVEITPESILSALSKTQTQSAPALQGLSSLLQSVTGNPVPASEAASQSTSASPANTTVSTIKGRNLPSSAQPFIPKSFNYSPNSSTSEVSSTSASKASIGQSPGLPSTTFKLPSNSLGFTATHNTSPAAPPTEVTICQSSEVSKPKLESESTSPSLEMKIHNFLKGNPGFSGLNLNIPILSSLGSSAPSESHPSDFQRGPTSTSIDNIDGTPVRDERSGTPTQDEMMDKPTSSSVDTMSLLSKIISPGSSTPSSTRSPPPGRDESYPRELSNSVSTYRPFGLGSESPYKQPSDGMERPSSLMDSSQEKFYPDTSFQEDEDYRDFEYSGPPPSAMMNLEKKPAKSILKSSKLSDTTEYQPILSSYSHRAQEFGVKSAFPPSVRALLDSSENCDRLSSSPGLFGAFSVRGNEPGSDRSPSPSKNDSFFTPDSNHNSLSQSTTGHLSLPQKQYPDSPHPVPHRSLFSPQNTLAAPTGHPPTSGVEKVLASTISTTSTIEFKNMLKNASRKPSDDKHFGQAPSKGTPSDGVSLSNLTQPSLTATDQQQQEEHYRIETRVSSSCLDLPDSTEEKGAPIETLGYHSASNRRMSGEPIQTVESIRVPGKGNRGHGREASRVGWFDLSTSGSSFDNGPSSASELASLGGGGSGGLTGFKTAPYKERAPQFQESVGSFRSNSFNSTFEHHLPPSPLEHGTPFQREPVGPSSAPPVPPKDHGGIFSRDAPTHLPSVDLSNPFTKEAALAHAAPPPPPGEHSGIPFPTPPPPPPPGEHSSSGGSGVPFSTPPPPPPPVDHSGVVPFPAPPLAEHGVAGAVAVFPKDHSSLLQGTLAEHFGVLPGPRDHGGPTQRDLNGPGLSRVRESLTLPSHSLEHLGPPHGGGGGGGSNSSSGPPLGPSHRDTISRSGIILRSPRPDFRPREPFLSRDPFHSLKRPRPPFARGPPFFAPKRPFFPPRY
UniProt P78346: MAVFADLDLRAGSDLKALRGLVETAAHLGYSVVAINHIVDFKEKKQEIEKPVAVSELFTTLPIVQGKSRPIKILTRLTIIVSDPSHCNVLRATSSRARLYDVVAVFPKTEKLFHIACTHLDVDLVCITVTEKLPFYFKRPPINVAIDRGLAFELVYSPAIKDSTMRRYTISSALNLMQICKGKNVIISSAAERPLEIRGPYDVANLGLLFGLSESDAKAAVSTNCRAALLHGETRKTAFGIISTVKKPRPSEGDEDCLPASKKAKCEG

What was measured:
Assay in all cases: log2 fold change, soluble protein after heating vs DMSO (PISA); higher = thermal stabilisation; K562 lysate, 10 uM; active = over 0.2 and 3.5 SD of the protein, either way, in both replicates (recomputed)
lapatinib = compound: CS(=O)(=O)CCNCc1ccc(-c2ccc3ncnc(Nc4ccc(OCc5cccc(F)c5)c(Cl)c4)c3c2)o1 [lapatinib]
In short: (§1)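 Soluble protein was defined as the supernatant remaining after 21,000xg for 90 min, following pooling of heated aliquots and adjustment to 0.5% NP-40 at 4°C. Before that, crude K562 extract at 1 mg/mL protein in PBS pH 7.4 with 1 mM MgCl2 was treated with 10 μM compound for 30 min and heated for 3 min across 48°C-58°C. Quantification used TMTpro 16plex LC-MS/MS with channel sums equalised, and values are log-two fold changes in thermal stability relative to solvent controls from duplicates.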

pictilisib = compound: CS(=O)(=O)N1CCN(Cc2cc3nc(-c4cccc5[nH]ncc45)nc(N4CCOCC4)c3s2)CC1 [pictilisib]
In short: as §1

crizotinib = compound: C[C@@H](Oc1cc(-c2cnn(C3CCNCC3)c2)cnc1N)c1c(Cl)ccc(F)c1Cl [crizotinib]
In short: as §1

[1] = compound: C[C@H](C1=CC=C(C=C1)C(=O)NC2=C3C=CNC3=NC=C2)N
In short: as §1

duvelisib = compound: C[C@H](Nc1ncnc2nc[nH]c12)c1cc2cccc(Cl)c2c(=O)n1-c1ccccc1 [duvelisib]
In short: as §1

gandotinib = compound: Cc1cc(Nc2cc(CN3CCOCC3)c3nc(C)c(Cc4ccc(Cl)cc4F)n3n2)n[nH]1 [gandotinib]
In short: as §1

tozasertib = compound: Cc1cc(Nc2cc(N3CCN(C)CC3)nc(Sc3ccc(NC(=O)C4CC4)cc3)n2)n[nH]1 [tozasertib]
In short: as §1

doramapimod = compound: Cc1ccc(-n2nc(C(C)(C)C)cc2NC(=O)Nc2ccc(OCCN3CCOCC3)c3ccccc23)cc1 [doramapimod]
In short: as §1

bafetinib = compound: Cc1ccc(NC(=O)c2ccc(CN3CC[C@H](N(C)C)C3)c(C(F)(F)F)c2)cc1Nc1nccc(-c2cncnc2)n1 [bafetinib]
In short: as §1

[2] = compound: Cc1cccc(CC(=O)N2CCc3c2ccc(-c2cn(C)c4ncnc(N)c24)c3F)n1
In short: as §1

nilotinib = compound: Cc1cn(-c2cc(NC(=O)c3ccc(C)c(Nc4nccc(-c5cccnc5)n4)c3)cc(C(F)(F)F)c2)cn1 [nilotinib]
In short: as §1

[3] = compound: Cc1nc(Nc2n[nH]c3c2CN(C(=O)N[C@H](CN(C)C)c2ccccc2)C3(C)C)c2sccc2n1
In short: as §1

dasatinib = compound: Cc1nc(Nc2ncc(C(=O)Nc3c(C)cccc3Cl)s2)cc(N2CCN(CCO)CC2)n1 [dasatinib]
In short: as §1

[4] = compound: Cc1ncc(-c2ccnc(Nc3ccc(S(C)(=O)=O)cc3)n2)n1C(C)C
In short: as §1

[5] = compound: Cn1cc(-c2ccc3c(c2)CCN3C(=O)Cc2cccc(C(F)(F)F)c2)c2c(N)ncnc21
In short: as §1

quisinostat = compound: Cn1cc(CNCC2CCN(c3ncc(C(=O)NO)cn3)CC2)c2ccccc21 [quisinostat]
In short: as §1

tipifarnib = compound: Cn1cncc1[C@@](N)(c1ccc(Cl)cc1)c1ccc2c(c1)c(-c1cccc(Cl)c1)cc(=O)n2C [tipifarnib]
In short: as §1

[6] = compound: NC(=O)Nc1cc(-c2cccc(F)c2)sc1C(=O)N[C@H]1CCCNC1
In short: as §1

[7] = compound: NC(=O)c1cnc(N[C@@H]2CCCC[C@@H]2N)nc1Nc1cccc(-n2nccn2)c1
In short: as §1

[8] = compound: NC1(c2ccc(-c3nc4ccn5c(=O)[nH]nc5c4cc3-c3ccccc3)cc2)CCC1
In short: as §1

Measured: log2 fold change

RPS11 (UniProt P62280)
inactive: lapatinib -0.026 | pictilisib 0.023 | crizotinib 0.011 | [1] 0.086 | duvelisib 0.05 | gandotinib -0.059 | tozasertib -0.007 | doramapimod -0.027 | bafetinib -0.022 | [2] -0.06 | nilotinib -0.01 | [3] -0.003 | dasatinib 0.033 | [4] -0.02 | [5] 0.012 | quisinostat 0.053 | tipifarnib 0.017 | [6] -0.05 | [7] -0.023 | [8] -0.008

RPS21 (UniProt P63220)
inactive: lapatinib -0.027 | pictilisib 0.031 | crizotinib 0.006 | [1] 0.003 | duvelisib -0.037 | gandotinib -0.007 | tozasertib 0.018 | doramapimod 0.029 | bafetinib -0.02 | [2] 0.014 | nilotinib -0.014 | [3] -0.018 | dasatinib -0.046 | [4] 0 | [5] -0.029 | quisinostat 0.003 | tipifarnib 0.038 | [6] -0.076 | [7] -0.006 | [8] 0.027

RRAGC (UniProt Q9HB90)
inactive: lapatinib -0.02 | pictilisib -0.032 | crizotinib -0.021 | [1] -0.01 | duvelisib -0.006 | gandotinib 0.052 | tozasertib -0.043 | doramapimod -0.016 | bafetinib -0.05 | [2] 0.003 | nilotinib -0.023 | [3] 0.025 | dasatinib 0.032 | [4] -0.004 | [5] -0.003 | quisinostat -0.118 | tipifarnib -0.013 | [6] 0 | [7] 0.001 | [8] -0.031

RTRAF (UniProt Q9Y224)
inactive: lapatinib -0.006 | pictilisib -0.095 | crizotinib 0.022 | [1] -0.037 | duvelisib 0.026 | gandotinib -0.017 | tozasertib 0.047 | doramapimod 0.017 | bafetinib 0.152 | [2] 0.017 | nilotinib -0.019 | [3] 0.061 | dasatinib -0.003 | [4] -0.011 | [5] 0.009 | quisinostat 0.019 | tipifarnib -0.004 | [6] -0.052 | [7] 0 | [8] 0.021

Reprinted from the results shown (2 entries):
RPS11 (UniProt P62280)
inactive: lapatinib -0.026 | pictilisib 0.023 | crizotinib 0.011 | [1] 0.086 | duvelisib 0.05 | gandotinib -0.059 | tozasertib -0.007 | doramapimod -0.027 | bafetinib -0.022 | [2] -0.06 | nilotinib -0.01 | [3] -0.003 | dasatinib 0.033 | [4] -0.02 | [5] 0.012 | quisinostat 0.053 | tipifarnib 0.017 | [6] -0.05 | [7] -0.023 | [8] -0.008

RPS21 (UniProt P63220)
inactive: lapatinib -0.027 | pictilisib 0.031 | crizotinib 0.006 | [1] 0.003 | duvelisib -0.037 | gandotinib -0.007 | tozasertib 0.018 | doramapimod 0.029 | bafetinib -0.02 | [2] 0.014 | nilotinib -0.014 | [3] -0.018 | dasatinib -0.046 | [4] 0 | [5] -0.029 | quisinostat 0.003 | tipifarnib 0.038 | [6] -0.076 | [7] -0.006 | [8] 0.027

The results go on.

RUFY3 isoform 3 (UniProt Q7L099)
inactive: lapatinib -0.007 | pictilisib -0.02 | crizotinib 0.028 | [1] 0.015 | duvelisib 0.029 | gandotinib -0.049 | tozasertib 0.046 | doramapimod -0.009 | bafetinib -0.007 | [2] 0.008 | nilotinib -0.022 | [3] 0.005 | dasatinib -0.028 | [4] -0.018 | [5] 0.008 | quisinostat 0.029 | tipifarnib 0.017 | [6] -0.008 | [7] 0.022 | [8] -0.02

RPLP0 (UniProt P05388)
inactive: lapatinib -0.084 | pictilisib -0.001 | crizotinib -0.039 | [1] -0.012 | duvelisib 0.01 | gandotinib 0.017 | tozasertib -0.005 | doramapimod -0.005 | bafetinib 0.025 | [2] -0.017 | nilotinib 0.008 | [3] -0.032 | dasatinib -0.042 | [4] 0.017 | [5] 0.011 | quisinostat -0.006 | tipifarnib 0.014 | [6] -0.03 | [7] -0.019 | [8] -0.014

RPS14 (UniProt P62263)
inactive: lapatinib 0.013 | pictilisib 0.03 | crizotinib -0.011 | [1] -0.082 | duvelisib -0.018 | gandotinib 0.048 | tozasertib -0.027 | doramapimod -0.015 | bafetinib -0.046 | [2] 0.05 | nilotinib 0.021 | [3] -0.008 | dasatinib -0.013 | [4] 0.027 | [5] -0.013 | quisinostat 0.042 | tipifarnib -0.009 | [6] 0.006 | [7] -0.01 | [8] -0.018

RPS6KA3 (UniProt P51812)
inactive: lapatinib -0.089 | pictilisib 0.223 | crizotinib -0.012 | [1] -0.037 | duvelisib -0.016 | gandotinib 0.156 | tozasertib 0.363 | doramapimod -0.057 | bafetinib -0.077 | [2] -0.083 | nilotinib -0.02 | [3] 0.17 | dasatinib -0.065 | [4] 0.039 | [5] 0.031 | quisinostat -0.046 | tipifarnib -0.023 | [6] 0.133 | [7] 0.09 | [8] 0.005

RSL1D1 (UniProt O76021)
inactive: lapatinib 0.004 | pictilisib 0.01 | crizotinib 0.022 | [1] 0.03 | duvelisib -0.01 | gandotinib -0.056 | tozasertib 0.008 | doramapimod -0.049 | bafetinib 0.014 | [2] -0.005 | nilotinib -0.008 | [3] 0.038 | dasatinib 0.023 | [4] -0.018 | [5] -0.004 | quisinostat 0.06 | tipifarnib 0.042 | [6] -0.017 | [7] -0.002 | [8] -0.004

RPS17 (UniProt P08708)
inactive: lapatinib -0.005 | pictilisib 0.002 | crizotinib 0.003 | [1] 0.146 | duvelisib 0.007 | gandotinib -0.06 | tozasertib -0.016 | doramapimod -0.005 | bafetinib 0.05 | [2] -0.086 | nilotinib 0.049 | [3] -0.014 | dasatinib -0.008 | [4] -0.003 | [5] -0.009 | quisinostat 0.012 | tipifarnib 0.041 | [6] -0.002 | [7] -0.028 | [8] 0.025

RRM2B isoform 6 (UniProt Q7LG56)
inactive: lapatinib 0.015 | pictilisib -0.004 | crizotinib 0.017 | [1] -0.041 | duvelisib -0.001 | gandotinib 0.078 | tozasertib 0.023 | doramapimod 0.007 | bafetinib 0.003 | [2] 0.006 | nilotinib -0.01 | [3] -0.014 | dasatinib 0.041 | [4] -0.062 | [5] 0.005 | quisinostat 0.011 | tipifarnib -0.054 | [6] -0.021 | [7] -0.048 | [8] -0.002

RRAS (UniProt P10301)
inactive: lapatinib -0.078 | pictilisib -0.01 | crizotinib 0.011 | [1] -0.07 | duvelisib -0.022 | gandotinib -0.032 | tozasertib 0.013 | doramapimod 0.027 | bafetinib -0.028 | [2] -0.01 | nilotinib -0.007 | [3] -0.006 | dasatinib 0.018 | [4] -0.001 | [5] -0.02 | quisinostat 0.009 | tipifarnib -0.008 | [6] 0.025 | [7] 0.005 | [8] 0

RPS8 (UniProt P62241)
inactive: lapatinib -0.011 | pictilisib 0 | crizotinib 0.041 | [1] -0.002 | duvelisib 0.026 | gandotinib -0.004 | tozasertib -0.013 | doramapimod -0.047 | bafetinib 0.039 | [2] -0.016 | nilotinib 0.004 | [3] -0.016 | dasatinib -0.001 | [4] -0.022 | [5] -0.001 | quisinostat 0.11 | tipifarnib 0.033 | [6] -0.017 | [7] -0.019 | [8] 0.002

RPRD2 (UniProt Q5VT52)
inactive: lapatinib -0.001 | pictilisib -0.043 | crizotinib 0.013 | [1] 0.027 | duvelisib 0.029 | gandotinib -0.097 | tozasertib 0.021 | doramapimod -0.016 | bafetinib 0.006 | [2] -0.006 | nilotinib 0.006 | [3] 0.009 | dasatinib -0.07 | [4] 0.004 | [5] -0.074 | quisinostat 0.037 | tipifarnib -0.187 | [6] 0.076 | [7] -0.016 | [8] 0.08

RPS27L (UniProt Q71UM5)
inactive: lapatinib -0.014 | pictilisib -0.049 | crizotinib -0.02 | [1] 0 | duvelisib 0.015 | gandotinib -0.017 | tozasertib -0.039 | doramapimod 0.015 | bafetinib -0.035 | [2] -0.051 | nilotinib 0.04 | [3] -0.029 | dasatinib -0.003 | [4] 0.01 | [5] -0.006 | quisinostat -0.012 | tipifarnib 0.039 | [6] -0.023 | [7] -0.043 | [8] -0.02

RPP30 isoform 2 (UniProt P78346)
inactive: lapatinib -0.008 | pictilisib 0.007 | crizotinib 0.029 | [1] 0.029 | duvelisib 0.034 | gandotinib 0.039 | tozasertib -0.01 | doramapimod -0.019 | bafetinib 0.026 | [2] -0.022 | nilotinib -0.015 | [3] 0.013 | dasatinib 0.042 | [4] 0.019 | [5] -0.023 | quisinostat 0.01 | tipifarnib -0.009 | [6] -0.003 | [7] 0.022 | [8] 0.011
